Experimental data reported in PubChem BioAssay AID330 (DTP/NCI, 2004).
The list does not hold the whole screen: it gathers tests that were run many times, whatever their T/C, doses with no T/C, and many T/C values between a quarter and a half above the control. Further doses and runs are listed elsewhere. T/C: endpoint of the treated group in % of that of the vehicle group. Some doses have a count of surviving animals in place of a T/C: the source files T/C as zero there, which appears to mark a toxic dose or a test without result, not a measured value. Some doses without a T/C left all or most animals alive at the check, yet need not have been tolerated: the source hardly ever lists a survival T/C far under the control, and the zero likely stands for such cases as well. Survivors were counted at the toxicity check, usually on the fifth day, unless a day is given; later deaths do not show. Schedules are NCI's codes, read here as Q, the interval in days (D) or hours (H), X, the number of doses. Some entries were tested several times; their values stand side by side, smallest first. For survival time, the PubChem record calls one and a half times the control and up active, and a quarter to a half above the control has no call in these data; cut-offs in other NCI protocols can differ. Some T/C values are followed by the survivors on the day toxicity was checked, most often the fifth; without a count, all were alive then.

System: P388 leukemia ip, CD2F1 mice, survival T/C
Assay: NCI In Vivo Anticancer Drug Screen. Data for tumor model P388 Leukemia (intraperitoneal) in CD2F1 (CDF1) mice
Settings: T/C endpoint: median survival time, higher T/C = longer survival
[1] = dose: 200.0 mg/kg/injection, schedule: Q01DX009 (ip), vehicle: saline with Tween-80
[2] = dose: 100.0 mg/kg/injection, schedule: Q01DX009 (ip), vehicle: other
[3] = dose: 200.0 mg/kg/injection, schedule: Q01DX009 (ip), vehicle: other
[4] = dose: 50.0 mg/kg/injection, schedule: Q01DX009 (ip), vehicle: saline with Tween-80
[5] = dose: 100.0 mg/kg/injection, schedule: Q01DX009 (ip), vehicle: saline with Tween-80
[6] = dose: 200.0 mg/kg/injection, schedule: Q01DX005 (ip), vehicle: saline with Tween-80
[7] = dose: 120.0 mg/kg/injection, schedule: Q01DX005 (ip), vehicle: saline with Tween-80
[8] = dose: 240.0 mg/kg/injection, schedule: Q01DX005 (ip), vehicle: saline with Tween-80
[9] = dose: 25.0 mg/kg/injection, schedule: Q01DX009 (ip), vehicle: saline with Tween-80
[10] = dose: 50.0 mg/kg/injection, schedule: Q01DX005 (ip), vehicle: Klucel (hydroxypropylcellulose) (HPC)
[11] = dose: 100.0 mg/kg/injection, schedule: Q01DX005 (ip), vehicle: Klucel (hydroxypropylcellulose) (HPC)
[12] = dose: 200.0 mg/kg/injection, schedule: Q01DX005 (ip), vehicle: Klucel (hydroxypropylcellulose) (HPC)
[13] = dose: 200.0 mg/kg/injection, schedule: Q01DX009 (ip), vehicle: saline
[14] = dose: 25.0 mg/kg/injection, schedule: Q01DX005 (ip), vehicle: Klucel (hydroxypropylcellulose) (HPC)
[15] = dose: 100.0 mg/kg/injection, schedule: Q01DX009 (ip), vehicle: Klucel (hydroxypropylcellulose) (HPC)
[16] = dose: 200.0 mg/kg/injection, schedule: Q01DX009 (ip), vehicle: Klucel (hydroxypropylcellulose) (HPC)
[17] = dose: 12.5 mg/kg/injection, schedule: Q01DX005 (ip), vehicle: saline with Tween-80

For `CCCCCCCCCCSCC(N)C(=O)OCC` (configuration not stated), the survivor count [1] was 3 of 6.

`CCCCCCCCCCCCCCCC(=O)N(CCCN(C)C)C(C)(C)CCC(C)(C)N(CCCN(C)C)C(=O)CCCCCCCCCCCCCCC` was tested, and the survivor count [2] was 0 of 6, the survivor count [3] was 0 of 6 and the survivor count (dose: 400.0 mg/kg/injection, schedule: Q01DX009 (ip), vehicle: other) was 0 of 6.

`COC(=O)C(N)CCCCNc1ccc2c(cc1=O)C(NC(C)=O)CCc1cc(OC)c(OC)c(OC)c1-2` (configuration not stated) was tested, and the T/C [4] was 128 % of control, the T/C [5] was 130 % of control and the T/C (dose: 120.0 mg/kg/injection, schedule: Q01DX009 (ip), vehicle: saline) was 130 % of control. For the same compound, the T/C (dose: 180.0 mg/kg/injection, schedule: Q01DX009 (ip), vehicle: saline) was 133 % of control, the T/C [1] was 147 % of control [5 of 6 alive] and the survivor count (dose: 400.0 mg/kg/injection, schedule: Q01DX009 (ip), vehicle: saline with Tween-80) was 5 of 6.

`O=c1[nH]cnc2c1ccc1[nH]ncc12` was tested, and the survivor count [6] was 1 of 6.

In the case of `Cn1c(=O)c2c(ncn2CCNC(c2ccccc2)c2cccc(Cl)c2)n(C)c1=O` (configuration not stated), the survivor count (dose: 50.0 mg/kg/injection, schedule: Q01DX005 (ip), vehicle: other) is reported as 0 of 5, the survivor count (dose: 100.0 mg/kg/injection, schedule: Q01DX005 (ip), vehicle: other) is reported as 1 of 5 and the survivor count (dose: 200.0 mg/kg/injection, schedule: Q01DX005 (ip), vehicle: other) is reported as 0 of 5.

`CC(C)C(=NC1CCCCC1)NC(C)(C)C` was tested, and the survivor count [1] was 0 of 6.

With `Nc1ccn([C@@H](C=O)O[C@@H](C=O)CO)c(=O)n1` the T/C (dose: 100.0 mg/kg/injection, schedule: Q04DX003 (ip), vehicle: saline) was 125 % of control, the T/C (dose: 150.0 mg/kg/injection, schedule: Q04DX003 (ip), vehicle: saline) was 129 % of control and the survivor count (dose: 400.0 mg/kg/injection, schedule: Q01DX009 (ip), vehicle: saline) was 3 of 6.

In the case of `OC(c1cc(-c2ccc(C(F)(F)F)cc2)nc(-c2ccc(C(F)(F)F)cc2)c1)C1CCCCN1` (configuration not stated), the survivor count [4] is reported as 6 of 6, the survivor count [5] is reported as 0 of 6 and the survivor count [1] is reported as 0 of 6.

With `CNc1nc(-c2ccc(C(C)(C)C)cc2)c(-c2ccc(C(C)(C)C)cc2)[nH]1` the survivor count (dose: 100.0 mg/kg/injection, schedule: Q04DX002 (ip), vehicle: saline with Tween-80) was 1 of 6.

`CCN(CC)Cc1c(C)nc2cc(N(C)C)ccc2c1Cl` was tested, and the survivor count [7] was 1 of 6 and the survivor count [8] was 0 of 5.

In the case of `NC(=S)N/N=C1/C(=O)N(c2ccc(Cl)cc2)C(=O)C1C(=O)Nc1ccc(Cl)cc1` (configuration not stated), the survivor count [7] is reported as 1 of 6 and the survivor count [8] is reported as 0 of 6.

In the case of `CCS(=O)(=O)OCCF`, the survivor count (dose: 6.25 mg/kg/injection, schedule: Q01DX009 (ip), vehicle: saline with Tween-80) is reported as 0 of 6, the survivor count (dose: 12.5 mg/kg/injection, schedule: Q01DX009 (ip), vehicle: saline with Tween-80) is reported as 0 of 6 and 6 of 6 and the survivor count [9] is reported as 0 of 6. The survivor count [4] was 0 of 6.

For `COc1cc2c[n+](C)c3c4cc(OC)c(OCc5ccccc5)cc4c(OCc4ccccc4)cc3c2cc1OC`, the survivor count [10] was 4 of 6, the survivor count [11] was 2 of 6 and the survivor count [12] was 0 of 6.

`N#Cc1c(C(=O)NN)c2c(-c3ccccc3)n[nH]c(=O)c2[nH]c1=O` was tested, and the survivor count (dose: 400.0 mg/kg/injection, schedule: Q01DX001 (ip), vehicle: saline with Tween-80) was 6 of 6.

With `NNc1ncnc2c1ccn2C1OC(CO)C(O)C1O` (configuration not stated) the T/C (dose: 16.5 mg/kg/injection, schedule: Q01DX009 (ip), vehicle: saline with Tween-80) was 140 % of control and the T/C [9] was 130 and 131 % of control.

With `C1CNC(CCNCCSCCNCCC2=NCCN2)=N1` the survivor count (dose: 100.0 mg/kg/injection, schedule: Q01DX009 (ip), vehicle: saline) was 0 of 6 and the survivor count [13] was 0 of 6.

`CC[C@]12C=CCN3CC[C@@]4(c5ccc(OC)cc5N(C)[C@H]4[C@@](O)(C(=O)OC)[C@@H]1OC(C)=O)[C@@H]32` was tested, and the survivor count [12] was 0 of 6.

`COc1nc(COC(=O)NC(C)C)c(COC(=O)NC(C)C)n1C` was tested, and the T/C [14] was 130 % of control, the T/C [10] was 147 % of control and the T/C [11] was 148 % of control.

`O=C(CS)Nc1ccccn1` was tested, and the survivor count [15] was 6 of 6 and the survivor count [16] was 0 of 6.

For `CC(C)N=C(NC(C)C)c1ccc(NC(=O)Nc2ccc(NC(=O)Nc3ccc(C(=NC(C)C)NC(C)C)cc3)cc2)cc1`, the T/C (dose: 6.25 mg/kg/injection, schedule: Q01DX005 (ip), vehicle: saline with Tween-80) was 125 % of control, the T/C [17] was 141 % of control and the survivor count [17] was 6 of 6. For the same compound, the survivor count (dose: 25.0 mg/kg/injection, schedule: Q01DX005 (ip), vehicle: saline with Tween-80) was 1 of 6, the survivor count (dose: 50.0 mg/kg/injection, schedule: Q01DX005 (ip), vehicle: saline with Tween-80) was 0 of 6 and the survivor count (dose: 100.0 mg/kg/injection, schedule: Q01DX005 (ip), vehicle: saline with Tween-80) was 0 of 6. For the same compound, the survivor count [6] was 0 of 6.

`Cc1cc(C)[s+]s1` was tested, and the survivor count (dose: 200.0 mg/kg/injection, schedule: Q01DX009 (ip), vehicle: water) was 0 of 6.

`CCSC(C(OC(C)=O)C(OC(C)=O)C(COC(C)=O)OC(C)=O)n1cc(F)c(=O)[nH]c1=O` (configuration not stated) was tested, and the survivor count (dose: 25.0 mg/kg/injection, schedule: Q01DX009 (ip), vehicle: other) was 6 of 6, the survivor count (dose: 50.0 mg/kg/injection, schedule: Q01DX009 (ip), vehicle: other) was 6 of 6 and the survivor count [2] was 6 of 6. For the same compound, the survivor count [3] was 6 of 6.

`CCCC1OP(=O)(N2CC(C)N(P3(=O)OCC(CC)C(CCC)O3)CC2C)OCC1CC` (configuration not stated) was tested, and the survivor count [12] was 5 of 5.

For `Nc1cc(Cl)c(N(CCO)C2=NCCN2)c(Cl)c1`, the survivor count [11] was 0 of 5 and the survivor count [12] was 0 of 5.

For `CCOC(=O)Nc1nc2ccc([N+](=O)[O-])cc2s1`, the survivor count (dose: 50.0 mg/kg/injection, schedule: Q01DX009 (ip), vehicle: Klucel (hydroxypropylcellulose) (HPC)) was 6 of 6, the survivor count [15] was 6 of 6 and the survivor count [16] was 6 of 6.

For `CN(C)c1n[nH]c(N)n1`, the survivor count [13] was 6 of 6.

For `NC(=O)c1ccccc1OC(=O)Nc1ccc(F)cc1`, the survivor count [8] was 2 of 6.

`CC(C)NC(=O)OCc1c(COC(=O)NC(C)C)c(-c2ccc(Cl)c(Cl)c2)n2c1C[C@@H](O)C2` was tested, and the T/C (dose: 6.25 mg/kg/injection, schedule: Q01DX005 (ip), vehicle: Klucel (hydroxypropylcellulose) (HPC)) was 140 % of control, the T/C (dose: 10.0 mg/kg/injection, schedule: Q01DX005 (ip), vehicle: Klucel (hydroxypropylcellulose) (HPC)) was 129 % of control and the T/C (dose: 12.5 mg/kg/injection, schedule: Q01DX005 (ip), vehicle: Klucel (hydroxypropylcellulose) (HPC)) was 147 % of control. For the same compound, the T/C (dose: 20.0 mg/kg/injection, schedule: Q01DX005 (ip), vehicle: Klucel (hydroxypropylcellulose) (HPC)) was 134 % of control, the T/C [14] was 145 % of control and the T/C (dose: 40.0 mg/kg/injection, schedule: Q01DX005 (ip), vehicle: Klucel (hydroxypropylcellulose) (HPC)) was 136 % of control. The T/C (dose: 80.0 mg/kg/injection, schedule: Q01DX005 (ip), vehicle: Klucel (hydroxypropylcellulose) (HPC)) was 149 % of control.

With `Oc1ccc(C[n+]2ccccc2)cc1O` the survivor count (dose: 50.0 mg/kg/injection, schedule: Q01DX005 (ip), vehicle: saline) was 0 of 6, the survivor count (dose: 100.0 mg/kg/injection, schedule: Q01DX005 (ip), vehicle: saline) was 0 of 6 and the survivor count (dose: 200.0 mg/kg/injection, schedule: Q01DX005 (ip), vehicle: saline) was 0 of 6.

With `ClC(Cl)(Cl)SSC(=Nc1ccccc1)SSC(Cl)(Cl)Cl` the T/C [4] was 131 % of control and the T/C [5] was 133 % of control.

`Cc1ccc(-c2cn3ccsc3n2)cc1` was tested, and the survivor count (dose: 400.0 mg/kg/injection, schedule: Q01DX001 (ip), vehicle: Klucel (hydroxypropylcellulose) (HPC)) was 3 of 6.
